# The list shows a part of the results.
# Key:
# Experiment in all cases: glycan array binding signal (z-score within array); higher = stronger binding
# Conditions in all cases: glycan notation: IUPAC condensed, linker removed
# [1] = biological target: Gal(b1-4)GlcNAc(b1-3)Gal(b1-4)GlcNAc(b1-6)[Gal(b1-3)]GalNAc
# Method in brief: (§1)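 The binding signal is a Z-score computed within each array and averaged over linkers. Arrays of the same protein sequence at different concentrations or buffers were also averaged together. Data originate from 3228 arrays in the Consortium for Functional Glycomics database, kept only where the protein sequence was available.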
# [2] = biological target: Gal(b1-4)GlcNAc(b1-3)Gal(b1-4)[Fuc(a1-3)]GlcNAc(b1-3)Gal(b1-4)[Fuc(a1-3)]GlcNAc
# Method in brief: as §1
# [3] = biological target: Gal(b1-4)GlcNAc(b1-3)GalNAc
# Method in brief: as §1
# [4] = biological target: Gal(b1-4)GlcNAc(b1-3)[Fuc(a1-3)GlcNAc(b1-6)]Gal(b1-4)Glc
# Method in brief: as §1
# [5] = biological target: Gal(b1-4)GlcNAc(b1-3)[Gal(b1-4)GlcNAc(b1-6)]Gal(b1-4)GlcNAc
# Method in brief: as §1
# [6] = biological target: Gal(b1-4)GlcNAc(b1-3)[GlcNAc(b1-6)]Gal(b1-4)GlcNAc
# Method in brief: as §1
# [7] = biological target: Gal(b1-4)GlcNAc(b1-6)Gal(b1-4)GlcNAc
# Method in brief: as §1
# [8] = biological target: Gal(b1-4)GlcNAc(b1-6)GalNAc
# Method in brief: as §1
# [9] = biological target: Gal(b1-4)GlcNAc(b1-6)[Gal(b1-3)]GalNAc
# Method in brief: as §1
# [10] = biological target: Gal(b1-4)GlcNAc(b1-6)[Gal(b1-4)GlcNAc(b1-3)]GalNAc
# Method in brief: as §1
# [11] = biological target: Gal(b1-4)GlcNAc6P
# Method in brief: as §1
# [12] = biological target: Gal(b1-6)Gal
# Method in brief: as §1
# [13] = biological target: Gal3S(b1-3)GalNAc
# Method in brief: as §1
# [14] = biological target: Gal3S(b1-3)GlcNAc
# Method in brief: as §1
# [15] = biological target: Gal3S(b1-3)[Fuc(a1-4)]GlcNAc
# Method in brief: as §1
# [16] = biological target: Gal3S(b1-4)Glc
# Method in brief: as §1
# [17] = biological target: Gal3S(b1-4)Glc6S
# Method in brief: as §1
# [18] = biological target: Gal3S(b1-4)GlcNAc
# Method in brief: as §1
# [19] = biological target: Gal3S(b1-4)[Fuc(a1-3)]Glc6S
# Method in brief: as §1
# [20] = biological target: Gal3S(b1-4)[Fuc(a1-3)]GlcNAc
# Method in brief: as §1
# [21] = biological target: Gal3S(b1-4)[Fuc(a1-3)]GlcNAc6S
# Method in brief: as §1
# [22] = biological target: Gal3S4S(b1-4)GlcNAc
# Method in brief: as §1
# [23] = biological target: Gal3S6S(b1-4)GlcNAc
# Method in brief: as §1
# [24] = biological target: Gal3S6S(b1-4)GlcNAc6S
# Method in brief: as §1
# [25] = biological target: Gal4S(b1-4)GlcNAc
# Method in brief: as §1
# [26] = biological target: Gal4S6S(b1-4)GlcNAc
# Method in brief: as §1
# [27] = biological target: Gal6P(b1-4)GlcNAc
# Method in brief: as §1
# [28] = biological target: Gal6S(b1-3)GlcNAc
# Method in brief: as §1
# [29] = biological target: Gal6S(b1-3)GlcNAc6S
# Method in brief: as §1
# [30] = biological target: Gal6S(b1-4)Glc
# Method in brief: as §1
# [31] = biological target: Gal6S(b1-4)Glc6S
# Method in brief: as §1
# [32] = biological target: Gal6S(b1-4)GlcNAc
# Method in brief: as §1
# [33] = biological target: Gal6S(b1-4)GlcNAc6S
# Method in brief: as §1
# [34] = biological target: GalNAc(a1-3)Gal
# Method in brief: as §1
# [35] = biological target: GalNAc(a1-3)GalNAc
# Method in brief: as §1
# [36] = biological target: GalNAc(a1-3)GalNAc(b1-3)Gal(a1-4)Gal(b1-4)Glc
# Method in brief: as §1
# [37] = biological target: GalNAc(a1-3)GalNAc(b1-3)Gal(a1-4)Gal(b1-4)GlcNAc
# Method in brief: as §1
# [38] = biological target: GalNAc(b1-3)Gal
# Method in brief: as §1
# [39] = biological target: GalNAc(b1-3)Gal(a1-4)Gal(b1-4)GlcNAc
# Method in brief: as §1
# [40] = biological target: GalNAc(b1-3)Gal(a1-4)Gal(b1-4)GlcNAc(b1-3)Gal(b1-4)Glc
# Method in brief: as §1
# [41] = biological target: GalNAc(b1-3)Gal(a1-6)Gal(b1-4)Glc
# Method in brief: as §1
# [42] = biological target: GalNAc(b1-3)GalNAc
# Method in brief: as §1
# [43] = biological target: GalNAc(b1-3)GlcNAc
# Method in brief: as §1
# [44] = biological target: GalNAc(b1-4)Gal(b1-4)Glc
# Method in brief: as §1
# [45] = biological target: GalNAc(b1-4)GlcNAc
# Method in brief: as §1
binder,measurement,setting,value
Pwp7 (Candida glabrata) (protein) MGSSHHHHHHSSGLVPRGSHMASKNPVDFPNLCQYPNLDGAVAGFDTEIYNADPSILINFSLWPILQFPKEWHKTIGRAITTQTNFKLPASDTTLFGVSIPTQNILIEFRGYFIPPKSGTYTFALYLTDDGSAMFLGNDAAFPCGNITSWSNPTNDQVSVSDYDPKKKTLTVYMVAGVAYPLRIAYYNREKGGSLTASFVDPDGLTHSDWNGYIWTLPSCDNCKYS,glycan array binding signal (z-score),[1],1.95
same,glycan array binding signal (z-score),[2],0.953
same,glycan array binding signal (z-score),[3],-0.111
same,glycan array binding signal (z-score),[4],0.601
same,glycan array binding signal (z-score),[5],-0.2
same,glycan array binding signal (z-score),[6],0.165
same,glycan array binding signal (z-score),[7],-0.763
same,glycan array binding signal (z-score),[8],-0.893
same,glycan array binding signal (z-score),[9],-0.028
same,glycan array binding signal (z-score),[10],-0.209
same,glycan array binding signal (z-score),[11],1.36
same,glycan array binding signal (z-score),[12],-0.152
same,glycan array binding signal (z-score),[13],-1.22
same,glycan array binding signal (z-score),[14],-0.644
same,glycan array binding signal (z-score),[15],-0.807
same,glycan array binding signal (z-score),[16],-0.515
same,glycan array binding signal (z-score),[17],-0.585
same,glycan array binding signal (z-score),[18],-0.642
same,glycan array binding signal (z-score),[19],0.032
same,glycan array binding signal (z-score),[20],-1.3
same,glycan array binding signal (z-score),[21],-0.723
same,glycan array binding signal (z-score),[22],-0.816
same,glycan array binding signal (z-score),[23],-0.247
same,glycan array binding signal (z-score),[24],-0.801
same,glycan array binding signal (z-score),[25],-1.16
same,glycan array binding signal (z-score),[26],-0.806
same,glycan array binding signal (z-score),[27],-0.135
same,glycan array binding signal (z-score),[28],-1.4
same,glycan array binding signal (z-score),[29],-0.368
same,glycan array binding signal (z-score),[30],-0.797
same,glycan array binding signal (z-score),[31],-0.46
same,glycan array binding signal (z-score),[32],-0.869
same,glycan array binding signal (z-score),[33],0.227
same,glycan array binding signal (z-score),[34],-1.01
same,glycan array binding signal (z-score),[35],-1.15
same,glycan array binding signal (z-score),[36],0.01
same,glycan array binding signal (z-score),[37],-0.508
same,glycan array binding signal (z-score),[38],-0.652
same,glycan array binding signal (z-score),[39],-0.47
same,glycan array binding signal (z-score),[40],0.293
same,glycan array binding signal (z-score),[41],0.42
same,glycan array binding signal (z-score),[42],-0.928
same,glycan array binding signal (z-score),[43],-0.7
same,glycan array binding signal (z-score),[44],0.576
same,glycan array binding signal (z-score),[45],-1.07

# Another view of part of the listing above.
binder	measurement	setting	value
Pwp7 (Candida glabrata) (protein) MGSSHHHHHHSSGLVPRGSHMASKNPVDFPNLCQYPNLDGAVAGFDTEIYNADPSILINFSLWPILQFPKEWHKTIGRAITTQTNFKLPASDTTLFGVSIPTQNILIEFRGYFIPPKSGTYTFALYLTDDGSAMFLGNDAAFPCGNITSWSNPTNDQVSVSDYDPKKKTLTVYMVAGVAYPLRIAYYNREKGGSLTASFVDPDGLTHSDWNGYIWTLPSCDNCKYS	glycan array binding signal (z-score)	[2]	0.953
same	glycan array binding signal (z-score)	[19]	0.032
